Results from article PMC2515349.
These are yes or no findings as the source states them, for the method shown. Binding seen in cells or lysates may run through a third protein. Binding can be weak; no strength is given.

The chains behind the UniProt entries cited, without tags or fusion partners. Where a name states a change or a piece, a line headed by the entry shows the natural chain unless it says otherwise.
UniProt P53618, whole entry, stated change not applied: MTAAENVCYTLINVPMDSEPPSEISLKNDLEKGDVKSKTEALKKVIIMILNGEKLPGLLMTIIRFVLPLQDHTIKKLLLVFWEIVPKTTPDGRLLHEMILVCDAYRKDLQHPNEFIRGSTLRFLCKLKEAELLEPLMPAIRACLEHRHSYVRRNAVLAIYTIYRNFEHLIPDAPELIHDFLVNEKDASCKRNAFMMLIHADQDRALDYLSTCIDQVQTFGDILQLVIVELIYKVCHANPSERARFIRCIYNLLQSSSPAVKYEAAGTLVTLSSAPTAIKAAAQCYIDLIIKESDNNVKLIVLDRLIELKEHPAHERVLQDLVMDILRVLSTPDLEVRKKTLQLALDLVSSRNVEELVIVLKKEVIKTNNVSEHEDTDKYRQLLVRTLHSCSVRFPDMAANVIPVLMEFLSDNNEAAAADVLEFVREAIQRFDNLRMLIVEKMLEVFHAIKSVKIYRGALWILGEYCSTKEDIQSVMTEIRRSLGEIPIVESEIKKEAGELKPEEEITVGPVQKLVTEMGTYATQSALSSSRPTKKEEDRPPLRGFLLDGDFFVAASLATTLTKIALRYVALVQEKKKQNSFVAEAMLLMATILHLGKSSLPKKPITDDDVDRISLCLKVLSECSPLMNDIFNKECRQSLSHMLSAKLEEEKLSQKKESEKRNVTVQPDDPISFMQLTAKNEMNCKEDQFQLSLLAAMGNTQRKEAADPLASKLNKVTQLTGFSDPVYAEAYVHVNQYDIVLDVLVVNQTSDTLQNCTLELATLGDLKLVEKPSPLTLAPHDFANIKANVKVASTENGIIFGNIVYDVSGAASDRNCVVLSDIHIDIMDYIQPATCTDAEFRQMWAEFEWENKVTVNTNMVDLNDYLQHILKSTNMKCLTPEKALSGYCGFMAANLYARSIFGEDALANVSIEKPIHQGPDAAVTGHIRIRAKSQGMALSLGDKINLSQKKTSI

Target: β-COP (human (endogenous in CEM)) (UniProt P53618)
Assay: co-IP; CEM T cells transduced with adenovirus (Figure 7C) or concentrated MSCV (Figure 8E), 20 mM NH4Cl for 16 hours, not cross-linked; lysed in 1% digitonin, 100 mM NaCl, 50 mM Tris pH 7.0, 1 mM CaCl2, 1 mM MgCl2; precipitated with anti-β-COP M3A5 cross-linked to beads; western blot for Nef

| Substance | binding |
| --- | --- |
| HIV-1 Nef D123G (adenoviral) (from UniProt P03406) | binds |
| HIV-1 Nef V10EΔ17–26 (adenoviral) (from UniProt P03406) | binds weakly |
